US20020107197A1, “Ligands for G protein coupled receptors and methods of using them” (priority 2000, published 2002)
Some results were stated once for a whole list of compounds, not compound by compound. At least one structure is not confirmed: it was looked up by name or label, or the drawing left a doubt.

The chains behind the UniProt entries cited, without tags or fusion partners. Where a name states a change or a piece, a line headed by the entry shows the natural chain unless it says otherwise.
UniProt P46093: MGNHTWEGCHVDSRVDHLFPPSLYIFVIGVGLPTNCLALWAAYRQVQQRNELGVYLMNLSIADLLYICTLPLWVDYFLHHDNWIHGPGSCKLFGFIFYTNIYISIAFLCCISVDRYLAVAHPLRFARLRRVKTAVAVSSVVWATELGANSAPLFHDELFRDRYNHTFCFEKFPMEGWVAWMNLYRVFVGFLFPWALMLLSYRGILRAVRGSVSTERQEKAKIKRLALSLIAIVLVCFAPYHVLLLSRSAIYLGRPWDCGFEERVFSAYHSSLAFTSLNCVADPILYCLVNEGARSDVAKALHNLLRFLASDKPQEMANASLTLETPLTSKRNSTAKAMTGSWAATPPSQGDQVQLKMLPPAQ

Biological target: T1, GPR4 (Homo sapiens, UniProt P46093)
T1 construct: were used to generate full length GPR4, which was digested with EcoRI and Xba I and cloned into the pBs3HA vector; expressed in transfected cells
Assay: Cell migration in modified Boyden chamber, GPR4-ires-GFP vs GFP Swiss 3T3 cells
Assay type: cell-based
Procedure: Chemotaxis was measured in a modified Boyden chamber assay. Briefly, different lipids were added to the lower chambers. GPR4-ires-GFP- and GFP-Swiss 3T3 cells were serum starved for 4 h, trypsinized, and seeded in the upper chambers of Boyden-transwell plates (Corning Inc., Corning, N.Y.). The chambers were incubated for 6 to 8 h. The number of cells that migrated to the lower face of the membrane was counted in 4 random fields. Data are represented as the average ±SD of three independent experiments. For the chemokinetic assay, the same concentrations of lipids were added to both the upper and lower chambers. For Rho inhibition studies, C3-exoenxyme was transiently transfected into Swiss 3T3 cells and cell migration assays were performed 48 hours later.

CCCCCCCCCCCCC/C=C/[C@@H](O)[C@@H](N)COP(=O)([O-])OCC[N+](C)(C)C [SPC, Sphingosylphosphorylcholine]
concentration range effective at inducing cell migration: 1 to 100 nM
